Results: patent US20100234381A1, “BIOMARKERS AND METHODS FOR DETERMINING SENSITIVITY TO VASCULAR ENDOTHELIAL GROWTH FACTOR RECEPTOR-2 MODULATORS” (Bristol-Myers Squibb Company, priority 2007, published 2010)
At least one compound was matched to its structure with a doubt left.

Tested on: FGF pathway
Assay: Gene set enrichment analysis of FGF pathway expression after FGF2 stimulation
Format: cell-based
Details: 1 μm drug after FGF2 stimulation
Procedure: The expression profiles of individual genes within each pathway were analyzed, and the log of the change in expression profile for each condition was measured. Overall, 67 pathways were analyzed. Each gene analyzed for each pathway have not been provided. But, 46 genes from the FGF pathway, 62 genes from the VEGF pathway were analyzed, and a larger generic number of genes consisting of 92 genes for the FGF pathway were analyzed using the AMBION® gene set.

For `CCN(CC)CCNC(=O)c1c(C)[nH]c(/C=C2\C(=O)Nc3ccc(F)cc32)c1C` [sunitinib, reference compound], which “FGF2-induced FGF pathway up-regulation (expression)” value is on record?
The value was “not sunitinib”.
